Laboratory results: PubChem BioAssay AID1259254 (NCATS, 2017)

- Test: 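Gene knock-downs that lead to re-replication, shown by excess G2 DNA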 (primary screen)
- Cell system: human HCT116 colorectal cancer cells
- Reagent: single siRNA against human genes
- Timing: 3 days
- Read-out: 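Nuclei stained with Hoechst and imaged; cell-cycle phase assigned by DNA content; G2 share scaled per plate, non-targeting siRNA 0%, GMNN siRNA 100%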
- Direction: G2 robust z-score and G2 cells, % of GMNN control: higher = more G2 cells, more excess DNA replication
- Active means: 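An siRNA counts as active if its G2 robust z-score lies at least 5 MADs above the screen median; here such calls match roughly 38% of GMNN control or more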
The deposit covers about 59,000 reagents; shown is an unselected part. In the full data, about 1,550 (2.6%) are marked active. 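G2 share is only a proxy for re-replication; each gene was hit by three separate siRNAs, and active genes were retested.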 Entries without a mark were called inactive. Reagents against one gene are numbered here. Further read-outs or replicates are left out here. The record does not give: the amount of reagent.

With EPHX1 #1, how do the results read?
G2 robust z-score: 2.12; G2 cells, % of GMNN control: 17.9

How did the screen score EPHX1 #2?
G2 robust z-score: 5.42 (active); G2 cells, % of GMNN control: 41.1

What did the screen give for EPHX1 #3?
G2 robust z-score: 0.159; G2 cells, % of GMNN control: 4.09

What did the screen give for NIP7 #1?
G2 robust z-score: -0.0454; G2 cells, % of GMNN control: 2.65

What did the screen give for NIP7 #2?
G2 robust z-score: 3.54; G2 cells, % of GMNN control: 27.9

For NIP7 #3, what does the deposit list?
G2 robust z-score: 0.705; G2 cells, % of GMNN control: 7.93

How did the screen score UGT1A1 #1?
G2 robust z-score: 3.67; G2 cells, % of GMNN control: 28.8

With UGT1A1 #2, how do the results read?
G2 robust z-score: 0.395; G2 cells, % of GMNN control: 5.75

With UGT1A1 #3, what does the deposit list?
G2 robust z-score: -0.469; G2 cells, % of GMNN control: -0.329

For ZNF714 #1, what was measured?
G2 robust z-score: 3.78; G2 cells, % of GMNN control: 29.5

For ZNF714 #2, how do the results read?
G2 robust z-score: 0.691; G2 cells, % of GMNN control: 7.83

How did the screen score ZNF714 #3?
G2 robust z-score: -0.137; G2 cells, % of GMNN control: 2

With PIGV #1, how do the results read?
G2 robust z-score: -0.209; G2 cells, % of GMNN control: 1.49

For PIGV #2, what does the deposit list?
G2 robust z-score: 0.844; G2 cells, % of GMNN control: 8.91

For PIGV #3, what does the deposit list?
G2 robust z-score: -0.791; G2 cells, % of GMNN control: -2.59

For PARM1 #1, how do the results read?
G2 robust z-score: 0.0939; G2 cells, % of GMNN control: 3.63

What is on record for PARM1 #2?
G2 robust z-score: 0.579; G2 cells, % of GMNN control: 7.04

With PARM1 #3, how do the results read?
G2 robust z-score: -0.785; G2 cells, % of GMNN control: -2.56

What is on record for HEY2 #1?
G2 robust z-score: 2.13; G2 cells, % of GMNN control: 18

For HEY2 #2, what was measured?
G2 robust z-score: -0.482; G2 cells, % of GMNN control: -0.421

For HEY2 #3, how do the results read?
G2 robust z-score: -0.675; G2 cells, % of GMNN control: -1.78

For MSI1 #1, what was measured?
G2 robust z-score: 2.29; G2 cells, % of GMNN control: 19.1

For MSI1 #2, what was measured?
G2 robust z-score: 1.16; G2 cells, % of GMNN control: 11.1

With MSI1 #3, what does the deposit list?
G2 robust z-score: -0.154; G2 cells, % of GMNN control: 1.88

For KCNA4 #1, what was measured?
G2 robust z-score: 2.23; G2 cells, % of GMNN control: 18.6

For KCNA4 #2, how do the results read?
G2 robust z-score: 0.186; G2 cells, % of GMNN control: 4.28

How did the screen score KCNA4 #3?
G2 robust z-score: -1.4; G2 cells, % of GMNN control: -6.85

For VPS51 #1, what was measured?
G2 robust z-score: 3.55; G2 cells, % of GMNN control: 27.9

With VPS51 #2, what does the deposit list?
G2 robust z-score: -0.743; G2 cells, % of GMNN control: -2.26

How did the screen score VPS51 #3?
G2 robust z-score: -0.856; G2 cells, % of GMNN control: -3.05

2 successive entries already listed:
KCNA4 #1 — G2 robust z-score: 2.23; G2 cells, % of GMNN control: 18.6
KCNA4 #2 — G2 robust z-score: 0.186; G2 cells, % of GMNN control: 4.28
